Reference: patent US7238710B2, “EP4 receptor agonist, compositions and methods thereof” (Merck Frosst Canada, Ltd., priority 2003, dated 2007)
At least one structure is not confirmed: it was looked up by name or label, or the drawing left a doubt.

System: RCT-1 cells
Assay: EP4 mRNA expression (Northern blot) in RCT-1 cells
Assay type: cell-based, rat
Details: retinoic acid treatment

CC1=C(/C=C/C(C)=C/C=C/C(C)=C/C(=O)O)C(C)(C)CCC1 [retinoic acid]
levels of EP4 mRNA: reduces
